Measured values reported in PubChem BioAssay AID720536 (National Center for Advancing Translational Sciences (NCATS), 2013).
The list shows a part of the results, in another mix than the full data. Inconclusive results are not listed. The source made the active and inactive calls. Calls come from the whole dose curve; as a rule, active = well fitted inhibition curve with a large enough effect; inconclusive = small, poorly fitted or top-dose-only effect; inactive = no such curve, though single readings can be large or run the other way.

assay: qHTS for Inhibitors of TGF-b: CCL64 Cells Orthogonal Assay for Cherry Picks; settings: CCL64 CAGA-GFP reporter, TGF-b stimulated, GFP fluorescence, 18 h; note: nearly all actives have a fitted effect of over 65% in size
Excerpt: TGF-b is a main component in the TGF-b signaling pathway which plays diverse roles in cellular and development pathways. TGF-b is the mediated by the transcription factors Smads. Although the Smad-dependent pathway is the primary canonical TGF-b signaling node, TGF-b1 can also activate alternative signaling pathways, including those involving MAPK (ERK, JNK and p38). This interaction may mediate or enhance Smad-dependent responses, or can exert Smad-independent effects. The complexity of this signaling cascade allows the TGF-b superfamily to perform unique, overlapping or redundant functions. […] We aim to identify Smad3-small molecule antagonists using a quantitative high throughput screening (qHTS) approach. […]
Suspensions of trypsinized CCL64 CAGA-GFP cells were dispensed into white, tissue culture-treated, solid 1536-well plates at 5uL/well (1000 cells/well final concentration) in DMEM medium supplemented with 1% FBS. […] The plates were measured on an Acumen eX3 Explorer plate reader for GFP fluorescence (ex488/em500-530). GFP values were calculated by determining the mean GFP fluorescence of individual cells, and compiling these values for each well to determine a total well GFP signal. The %Activity was determined from the corrected fluorescence values. […] Concentration-response curves were fitted to the signals arising from the resulting fluorescence. […]
Potency is the fitted concentration of half-maximal effect.

Row | SMILES | Potency
1 | COc1c(O)cc2c(c1OC)-c1ccc(SC)c(=O)cc1C(NC(C)=O)CC2 (stereo unspecified) | active: 206 nM
